Experimental data: publication PMC3903627
These are yes or no findings as the source states them, for the method shown. Binding can be weak; no strength is given.

Tests used:
GST-ArgBP2 SH3 B domain = assay: pull-down; same experiment as a5: P1 peptide (50 uM) as competitor on the GST-SH3 domains on beads; both purified
GST-ArgBP2 SH3 A domain = assay: as above

B1: P1 peptide (peptide)
peptide: AQPARPPPPAQPGE
modifications: acetylated at the amino terminus; amidated at the carboxyl terminus
For B1, the binding (GST-ArgBP2 SH3 B domain) was “binds” and the binding (GST-ArgBP2 SH3 A domain) was “binds”.
